For this experiment, the system named is A549. The experiment is described as follows: Cytotoxicity against human A549 cells assessed as reduction in cell viability after 72 hrs by CCK-8 assay. It counts as functional, cell-based. The note with it: A549, 72 h. On the technique in general: Tetrazolium assays rely on reduction of a dye to a coloured formazan, in cell work by metabolically active cells.

For one compound, IC50 results are on record in ChEMBL document CHEMBL4190215, “Ochracenes A-I, Humulane-Derived Sesquiterpenoids from the Antarctic Fungus Aspergillus ochraceopetaliformis” (J Nat Prod, 2017).

With `CC(=O)O[C@H]1C(=O)[C@@]2(C)[C@H]([C@H](OC(=O)c3ccccc3)[C@]3(O)C[C@H](OC(=O)[C@H](O)[C@@H](NC(=O)c4ccccc4)c4ccccc4)C(C)=C1C3(C)C)[C@]1(OC(C)=O)CO[C@@H]1C[C@@H]2O` [PACLITAXEL], the IC50 (in general, the concentration that inhibits the measured activity by half) came to 2.1 nM.
